Data from publication PMC2921345.
These are yes or no findings as the source states them, for the method shown. Binding seen in cells or lysates may run through a third protein. Some results given as binding are weak or reduced against the parent protein; the word gives no strength.

Sequences of proteins named here, by UniProt entry; tags and fusion partners are left off. A change or cut given only in a name is not applied to a line headed by its entry.
UniProt O08816: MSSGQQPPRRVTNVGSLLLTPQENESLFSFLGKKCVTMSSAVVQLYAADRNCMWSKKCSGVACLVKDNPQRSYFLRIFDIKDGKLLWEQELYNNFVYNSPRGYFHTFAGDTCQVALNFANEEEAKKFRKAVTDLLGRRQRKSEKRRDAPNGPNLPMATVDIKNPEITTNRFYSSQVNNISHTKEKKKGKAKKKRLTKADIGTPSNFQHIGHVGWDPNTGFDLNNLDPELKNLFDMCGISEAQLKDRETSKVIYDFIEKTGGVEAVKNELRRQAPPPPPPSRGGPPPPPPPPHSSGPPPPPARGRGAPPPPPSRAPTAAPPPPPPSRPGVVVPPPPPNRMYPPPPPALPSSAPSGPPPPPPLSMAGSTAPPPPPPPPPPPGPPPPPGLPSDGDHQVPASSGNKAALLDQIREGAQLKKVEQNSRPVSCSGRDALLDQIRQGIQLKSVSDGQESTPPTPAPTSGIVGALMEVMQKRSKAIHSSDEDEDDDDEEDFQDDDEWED
UniProt P60953: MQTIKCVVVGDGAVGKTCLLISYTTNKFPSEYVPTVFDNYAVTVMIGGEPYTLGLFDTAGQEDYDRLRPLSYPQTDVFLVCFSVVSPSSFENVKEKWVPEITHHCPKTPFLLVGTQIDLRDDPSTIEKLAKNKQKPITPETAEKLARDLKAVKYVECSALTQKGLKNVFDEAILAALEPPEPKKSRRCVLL

What was measured:
mRFP-N-WASP (wild type) [1] = target: mRFP-N-WASP (wild type) (UniProt O08816); test: FRET or BRET; AP-FRET in cells with low level GFP-Cdc42G12V plus mRFP-Toca-1/HA-N-WASP or mRFP-N-WASP/myc-Toca-1, 36 hours; ROI on tubules
mRFP-N-WASP (wild type) [2] = target: mRFP-N-WASP (wild type) (UniProt O08816); test: FRET or BRET; AP-FRET in cells with low level GFP-Cdc42G12V plus mRFP-Toca-1/HA-N-WASP or mRFP-N-WASP/myc-Toca-1, 36 hours; ROI on membrane vesicles

binding (mRFP-N-WASP (wild type) [1]): binds
binding (mRFP-N-WASP (wild type) [2]): binds
Substance: GFP-Cdc42G12V (dominant active Cdc42) (from UniProt P60953 1-191)
